“And” between values parts separate entries of the source, which are not always exact repeats. Equal values may be shown once. This is one part of the list. These are further read-outs of the screen, such as a control signal, another cell line or another target. No call is given for them. Most of these compounds were active or inconclusive in the main read-out, so they are no random draw. Potencies come from curve fits of mixed quality, noted in brackets.
Assay: qHTS Assay for Lipid Storage Modulators in Drosophila S3 Cells;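 as to cell number change: cells counted by Cell Tracker Red CMTPX staining in the red channel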
Details: BODIPY lipid droplet fluorescence, 18-24 h; for cell number change: measured here: cell count max response, cells fed with added oleic acid
How it was run: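 Drosophila S3 cells loaded with oleic acid (400 uM, as added) and compounds at several concentrations; lipid droplets imaged by 488-nm laser-scanning cytometry, 500–530 nm intensity and object ratio to cell channel. Percent activity normalized to 20 uM Triacsin C.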

[1] = measured here: lipid fluorescence (Fed channel) AC50, cells fed with added oleic acid
[2] = measured here: cell number channel AC50, cells fed with added oleic acid

Structure (SMILES) | cell number change | AC50 [1] | AC50 [2]
COc1cccc(Cn2c(-c3cccs3)noc2=O)c1 | 10.1% | 16.4 µM [rising, single point] | 
Cc1ccc(-n2c(SCC(=O)OC(C)C)nnc2-c2ccccn2)cc1 | -7.76% | 0.116 µM [rising, partial curve, poor fit] | 
Cc1c2cnn(-c3ccccc3)c(=O)c2c(C)n1CCCC(=O)NCCN1CCN(C)CC1 | 35.1% | 20.6 µM [rising, single point] | 25.9 µM [rising, single point]
CC(=O)N1C(=O)C(=C2C=C(C)OC(C)=C2)c2ccccc21 | -8.93% | 6.51 µM [falling, single point] | 
CCC(C)N(C(=O)c1csnn1)C(C(=O)NC1CCCC1)c1ccc(F)cc1 (configuration not stated) | -7.62% |  | 
O=C(CCCn1cncn1)N1CCCC(N2CCN(c3ccccc3F)CC2)C1 (configuration not stated) | -12.2% | 0.58 µM [rising, single point] | 
Fc1ccc(-c2cc3nc(-c4ccccc4)cc(N4CCN(CCN5CCOCC5)CC4)n3n2)cc1 | 43.7% | 29.1 µM [rising, single point] | 32.6 µM [rising, single point]
CC(Sc1nc2cc([N+](=O)[O-])ccc2n1-c1ccc(F)cc1)C(=O)NCc1ccc2c(c1)OCO2 (configuration not stated) | 2.99% | 6.51 µM [rising, partial curve] | 
OC1NC(=S)N(c2ccccc2)C1O (configuration not stated) | -2.13% |  | 0.58 µM [falling, full curve]
CCOC(=O)Cn1c(-c2cccnc2Cl)nc2cc(C)c(C)cc21 | 3.96% | 29.1 µM [rising, single point] | 6.51 µM [rising, single point]
Cc1c(C(=O)O)cccc1-c1ccc(/C=N/Nc2ccc(Br)cc2)o1 | 3.85% | 2.31 µM [rising, partial curve, poor fit] | 
CCN(C(=O)c1ccco1)c1nnc(-c2cccnc2)s1 | 30.7% | 0.411 µM [falling, full curve] | 
CCOc1ccc(C(=O)NCC(=O)NCC(c2ccco2)N2CCCCC2)cc1 (configuration not stated) | 0.268% | 3.66 µM [rising, single point] | 
CC(C)NCC(O)COc1c(F)cc(Br)cc1F (configuration not stated) | -25.4% | 29.1 µM [falling, single point] | 
Cn1c(SCC(=O)N/N=C/C=C\c2ccco2)nc2ccccc21 | -31.8% |  | 8.2 µM [falling, partial curve, poor fit]
CCC1C(=O)N=C(SCC(=O)Nc2ccc(Br)cn2)NC1=O (configuration not stated) | -47.2% | 1.84 µM [falling, partial curve] | 2.06 µM [falling, partial curve]
O=S(=O)(c1cnc[nH]1)N1CCCCCC1 | -39.5% | 3.66 µM [falling, full curve] | 18.4 µM [falling, single point]
Cc1[nH]n(-c2ccccc2)c(=O)c1C=Nc1ccc(S(=O)(=O)Nc2nccs2)cc1 |  |  | 0.411 µM [rising, single point]
Cc1ccc(C(=O)NC(=O)OCCn2c(C)cnc2[N+](=O)[O-])cc1 |  |  | 0.146 µM [rising, partial curve, poor fit]
Cc1oc2c(c(C)cc3oc(=O)c(CC(=O)N[C@@H](CCCNC(N)=O)C(=O)O)c(C)c32)c1C | 18.9% | 29.1 µM [rising, single point] | 

Structure (SMILES) | cell number change | AC50 [1] | AC50 [2]
C=CCn1c(=O)c2c(nc3n2CC(C)CN3c2cccc(OC)c2)n(C)c1=O (configuration not stated) | -20.1% | 32.6 µM [falling, partial curve, poor fit] | 
O=C(NCc1ccccc1)c1cccc(OCC(=O)N2CCN(C(=O)c3ccco3)CC2)c1 | -0.057% |  | 
COC(=O)CSc1nc2ccccc2n1CC(=O)N(C(C)C)C(C)C | -25.1% | 6.51 µM [falling, partial curve] | 
CN(CC(=O)Nc1cccnc1Cl)S(=O)(=O)c1ccc(Cl)cc1 | 5.78% | 16.4 µM [rising, single point] | 
CCN1CCN(C(=O)CSCc2nc(-c3ccc(OC)c(OC)c3)oc2C)CC1 | -0.184% |  | 
O=C(CN1CCN(Cc2ccccc2)CC1)NCCNc1ccc([N+](=O)[O-])cn1 | -48.4% | 5.17 µM [falling, single point] | 2.59 µM [falling, full curve]
CC(C(=O)N1CCN(c2ccccc2)CC1)N1C(=O)C2CC=CCC2C1=O (configuration not stated) | -39.2% | 0.366 µM [falling, full curve, poor fit] | 4.61 µM [falling, full curve, poor fit]
COc1cc(NC(=O)COc2ccccc2[N+](=O)[O-])ccc1NC(=O)c1cccs1 | -57.8% |  | 
Nc1cc(C(Cl)=C(Cl)Cl)c(S(N)(=O)=O)cc1S(N)(=O)=O | -33.2% | 0.092 µM [falling, full curve, poor fit] | 0.092 µM [falling, full curve, poor fit]
Fc1ccccc1Nc1nc(-c2ccncc2)nc2ccccc12 | 32.1% |  | 2.31 µM [rising, full curve]
Cc1ccc(NC(=O)CSc2nc(N)c3cc4c(nc3n2)CCCC4)cc1 | 3.41% | 29.1 µM [falling, single point] | 
CCN(CC(=O)Nc1c(F)cccc1F)C(=O)Cc1csc(-c2ccccc2)n1 | 107% | 2.91 µM [falling, full curve, poor fit] | 29.1 µM [rising, single point]
CCn1c(CNC(=O)c2ccccc2F)nnc1SCc1nc2ccccc2c(=O)[nH]1 | -22% | 3.26 µM [rising, single point] | 1.84 µM [rising, partial curve]
Cc1ccc(C)c(C(C)NC(=O)Cc2cccs2)c1 (configuration not stated) | 10.2% | 23.1 µM [falling, single point] | 
O=C(CC(NCCc1ccccc1)C(=O)O)Nc1ccc(O)cc1 (configuration not stated) | -40.9% |  | 0.366 µM [falling, full curve]
CCOC(=O)c1ccccc1NC(=O)CSc1ncc(C(=O)OCC)c(N)n1 | -22.4% | 0.13 µM [rising, full curve, poor fit] | 
O=C(CNS(=O)(=O)c1cccs1)N1CCN(c2ccccc2F)CC1 | 17.6% | 2.91 µM [rising, single point] | 0.82 µM [rising, full curve, poor fit]
O=C(Nc1ccccc1C(=O)N1CCCCC1)c1ccc(Cl)cc1Cl | -1.28% |  | 
CC(=O)Oc1cccc(/C=C2\C=C(c3ccc(C)cc3)OC2=O)c1 | 10.7% |  | 
CCn1c(SCC(=O)Nc2nc(C)cs2)nnc1-c1ccoc1C | 96% | 0.651 µM [rising, full curve] | 0.651 µM [rising, single point]

Single values from the entries so far:
O=C(CN1CCN(Cc2ccccc2)CC1)NCCNc1ccc([N+](=O)[O-])cn1 | cell number change: -48.4%
OC1NC(=S)N(c2ccccc2)C1O (configuration not stated) | AC50 [2]: 0.58 µM [falling, full curve]
O=C(CNS(=O)(=O)c1cccs1)N1CCN(c2ccccc2F)CC1 | AC50 [1]: 2.91 µM [rising, single point]

Carrying on.

Structure (SMILES) | cell number change | AC50 [1] | AC50 [2]
CC(OC(=O)c1nn(C)c(=O)c2ccccc12)C(=O)NC1CCCCC1C (configuration not stated) |  | 2.06 µM [falling, partial curve, poor fit] | 0.00461 µM [falling, full curve, poor fit]
O=C(Nc1cccc(-c2cccc(Cl)c2)c1)C1CCN(C2CCC2)CC1 | 5.66% | 29.1 µM [falling, partial curve, poor fit] | 
O=C(CCN1CCOCC1)Nc1cccc(Br)c1 | -12% | 0.0103 µM [falling, full curve, poor fit] | 
Cc1ccc(NC(=O)c2cc(-c3ccccc3)nn2-c2ccccc2)c(Br)c1 | -5.88% | 29.1 µM [falling, partial curve, poor fit] | 
COC(=O)c1cc(C(=O)Nc2nnc(CC(C)C)s2)cc([N+](=O)[O-])c1 | 22.3% | 29.1 µM [rising, single point] | 
COc1cccc(C(=O)COc2ccc3c(C)cc(=O)oc3c2)c1 | 24.3% |  | 
O=C(c1nnc(-c2ccncc2)o1)c1ccccc1Cl | 16.8% | 18.4 µM [rising, single point] | 
CN(C)S(=O)(=O)c1ccc(C(=O)Nc2nnc(SCc3ccccc3)s2)cc1 | 7.12% |  | 
Cc1n[nH]c(=O)nc1NCc1ccccc1 | 27.2% | 8.2 µM [falling, single point] | 
CC[C@H](C)C(=O)O[C@H]1CCC=C2C=C[C@H](C)[C@H](CC[C@@H]3C[C@@H](O)CC(=O)O3)[C@H]21 | 21.3% and -63.3% | 23.1 µM [falling, partial curve, poor fit] | 2.31 µM [rising, full curve, poor fit] and 23.1 µM [falling, partial curve, poor fit]
Brc1ccc(OCCOc2cccc3cccnc23)cc1 | -17.2% | 29.1 µM [falling, single point] | 
COC(=O)C1CCN(S(=O)(=O)CCNC(=O)c2cccc(OC)c2)CC1 | 6.85% | 0.651 µM [falling, full curve, poor fit] | 
Nc1nonc1C(=O)OCC(=O)N1CCOCC1 | 1.35% |  | 
Cc1ccc(-c2csc(=S)n2CC(=O)OCC(=O)NC(C)C(C)C)cc1 (configuration not stated) | -14.4% | 29.1 µM [falling, single point] | 
C/C(=N/Nc1nc(C)cc(C)n1)c1ccc(Br)cc1 | -0.365% |  | 
C/C(=N\NC(=O)Cc1ccc(Cl)cc1)c1cccnc1 | 16.2% | 0.116 µM [rising, full curve, poor fit] | 
CCC(c1nnc(SCC(=O)Nc2ccc(C(C)=O)cc2)n1C1CCCCC1)N(C)C (configuration not stated) |  | 0.461 µM [falling, single point] | 
O=[N+]([O-])c1ccccc1C1Nc2cccc3cccc(c23)N1 | -67.8% | 5.17 µM [falling, full curve] | 4.11 µM [falling, full curve]
